This is an account of results in PubChem BioAssay AID662 (National Center for Advancing Translational Sciences (NCATS), 2007).

Values joined by “and” are separate entries in the source; they are usually repeats but may differ in a detail not shown here. Equal entries are not always repeated. The list shows a part of the results. Shown are side measurements of this screen, not its main read-out; they come without a call. Most of these compounds were active or inconclusive in the main read-out, so they are no random draw. Potencies come from curve fits of mixed quality, noted in brackets.

This experiment in a line: Cell signaling CRE-BLA (Fsk stim). The note with it: CHO CRE-bla reporter (cAMP response element driving beta-lactamase), forskolin EC10, beta-lactamase ratio; measured here: 460 nm blue channel. The method in brief: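 qHTS titration format; CRE-bla CHO reporter; stimulus EC10 NKH 477, a water-soluble forskolin. Read: CCF4 460/530 nm ratio. Potency expressed as AC50 for activators or inhibitors.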
In general, AC50 refers to the midpoint of the concentration-response curve, whichever way the signal moves. In the case of `N=c1c(C(=O)NCC2CCCO2)cc2c(=O)n3ccccc3nc2n1Cc1cccnc1` (stereo not given), the AC50 was 12.6 µM [rising, partial curve].

As for `Cc1nn(C)cc1CN(C)C(=O)c1nn2c(c1Cl)NC(c1cccs1)CC2C(F)(F)F` (stereo not given), the AC50 is 25.1 µM [rising, single point].

`CCn1c(=O)c(C(C)=O)nc2ccccc21`: the AC50 is 12.6 µM [rising, partial curve].

In the case of `OC1(c2cccc(C(F)(F)F)c2)CCNCC1`, the AC50 was 31.6 µM [falling, partial curve].

`CC(=O)OCC(=O)NCc1ccc2c(c1)OCO2`: the AC50 is 5.01 µM [falling, single point].

With `CCN1C(=S)SC(=O)C1=C1C=C(C)OC(C)=C1`, the AC50 is 5.01 µM [falling, partial curve].

With `Cc1nc(N2C(=O)C(=O)/C(=C(/O)c3ccccc3)C2c2ccco2)sc1C` (stereo not given), the AC50 was 12.6 µM [rising, single point].

Consider `CCOC(=O)Cc1nnc(NC(=O)CSc2nnc3c4ccccc4n(C)c3n2)s1`, for which the AC50 is 3.16 µM [rising, partial curve].

In the case of `Cn1nc(-c2ccc(Cl)cc2)c2cc(C(=O)NCC3CCCO3)sc21` (stereo not given), the AC50 is 5.01 µM [rising, partial curve].

Turning to `Cc1ccc(N=C2SCCCN2C(=O)c2ccco2)cc1Cl`, the AC50 is 3.16 µM [falling, full curve].

For `c1nc(N2CCNCC2)c2cc(-c3ccc4c(c3)OCO4)ccc2n1`, the AC50 is 15.8 µM [rising, partial curve].

Consider `CCCCC[C@H](O)/C=C\[C@H]1[C@H](C/C=C\CCCC(=O)O)[C@@H](O)C[C@H]1O` (tested in a mixture with another compound), for which the AC50 was 2.51 µM [rising, full curve].

Turning to `COC(=O)c1c(C)nc(C)c2c(=O)oc3ccccc3c12`, the AC50 is 10 µM [rising, partial curve].

For `Cc1cccc(-n2c(N)cc(=O)nc2SCC(=O)Nc2ccccc2)c1`, the AC50 is 25.1 µM [rising, single point].

Turning to `O=c1c2c(nc3nc(COc4ccccc4)[nH]n13)CCC2`, the AC50 was 15.8 µM [rising, single point].

Turning to `Cc1nn(Cc2ccccc2Cl)c(C)c1NC(=O)C1C2CCC(O2)C1C(=O)O` (stereo not given), the AC50 is 10 µM [rising, partial curve, poor fit].

Regarding `O=C1CN(C(=O)CC2c3ccccc3-c3ccccc32)CC(=O)N1`, the AC50 was 31.6 µM [falling, partial curve].

Turning to `C=CCn1cc(C(=O)OC)c(=O)c2cc(S(=O)(=O)N3CCC(C)CC3)ccc21`, the AC50 is 25.1 µM [rising, single point].

Turning to `O=C1C2CC=C(Cl)CC2C(=O)N1CN(Cc1ccco1)CN1C(=O)C2CC=C(Cl)CC2C1=O` (stereo not given), the AC50 was 3.16 µM [rising, single point].

`COc1ccccc1C(=O)Nc1cc(-c2nn3c(C)nnc3s2)ccc1C`: the AC50 is 10 µM [rising, partial curve].

Take `COc1ccc(S(=O)(=O)C(C#N)c2nc3ccccc3nc2N2CCC(C)CC2)cc1` (stereo not given): the AC50 is 10 µM [rising, partial curve].

With `Nc1ncnc2c1c(-c1ccc(Oc3ccccc3)cc1)cn2C1CCCC1`, the AC50 was 25.1 µM [falling, partial curve].

Regarding `Cc1nc2c3c(-c4ccccc4)c(-c4ccccc4)oc3ncn2n1`, the AC50 is 20 µM [rising, single point].

On to `COc1ccccc1-c1cc(Nc2ccc(F)cc2)ncn1`, for which the AC50 is 5.01 µM [rising, single point].

For the compound `O=C(O)CCC(=O)N1CCN(c2nc3ccccc3s2)CC1`, the concentration at half-maximal activity (AC50) was 0.00316 µM [falling, full curve, poor fit].

For `CCCS(=O)(=O)N1CCCC(C(=O)N2CCOCC2)C1` (stereo not given), the AC50 was 25.1 µM [rising, single point].

Regarding `CCc1nn2c(N3CCOCC3)cc(C)nc2c1-c1ccc(F)cc1`, the AC50 was 2.51 µM [rising, single point].

For `Cc1[nH]nc2nc(SCC(=O)NCC3CCCO3)n(-c3ccc(Br)cc3)c(=N)c12` (stereo not given), the AC50 is 15.8 µM [rising, partial curve].

As for `N#Cc1ccccc1NC(=O)CSc1nnc(-c2ccccc2)n1-c1ccccc1`, the AC50 is 2.51 µM [falling, partial curve, poor fit].

In the case of `COC(=O)CCSCc1cn2cc(Cl)ccc2n1`, the AC50 was 12.6 µM [falling, single point].

On to `CCOC(=O)N1CCC(NS(=O)(=O)c2ccc3c(c2)C(C)(C)C(=O)N3C)CC1`, for which the AC50 is 0.251 µM [rising, full curve, poor fit].

As for `Cc1cc(=O)[nH]c(-n2nc(C)cc2C)n1`, the AC50 is 5.01 µM [falling, single point].

Turning to `CCOC(=O)CNC(=O)Cn1cnc2c(nnn2-c2cccc(Cl)c2)c1=O`, the AC50 is 0.00398 µM [falling, full curve].

For the compound `CCCCCCN(C(=O)CCCCCN1C(=O)NC(c2ccccc2-c2ccccc2)C(C(=O)OCc2ccccc2)=C1C)C(C(=O)NCCCC)c1ccc(OCC(=O)OC)c(C(=O)OC)c1` (stereo not given), the AC50 is 25.1 µM [falling, single point].

Take `COc1ccccc1CNc1ncnc2ccc(-c3cccc(C#N)c3)cc12`: the half-maximal activity concentration (AC50) is 2 µM [rising, full curve].

Regarding `CCOc1ccccc1-c1nc(C(N)=O)c2[nH]c(=O)n(-c3ccccc3)c2n1`, the concentration at half-maximal activity (AC50) was 10 µM [rising, partial curve].

Take `N#Cc1c(N)nc2c(c1-c1ccncc1)CCCCCC2`: the AC50 is 2.51 µM [rising, full curve].

With `CC(C)OCCCN1C(=O)c2[nH]nc(-c3ccccc3O)c2C1c1cccc(Cl)c1` (stereo not given), the AC50 is 6.31 µM [falling, partial curve].

In the case of `Cc1nnc2ccc(Oc3ccc(-c4ccccc4)cc3)nn12`, the AC50 is 7.94 µM [rising, partial curve].

As to `c1cn(-c2ncnc3sc4c(c23)CCCC4)cn1`, the AC50 was 3.16 µM [falling, partial curve].

As for `COc1ccc(N2CCN(c3nc4c(c(=O)n(C)c(=O)n4C)n3Cc3ccccc3)CC2)cc1`, the AC50 is 12.6 µM [rising, single point].

`O=C(C1CC1)N1CCc2cc(S(=O)(=O)N3CCCc4ccccc43)ccc21`: the AC50 is 2 µM [rising, full curve].

For the compound `N#CC(C#N)=c1ccc2c(c1)NC1(CCCCC1)N=2`, the AC50 is 10 µM [falling, partial curve, poor fit].

Take `COc1ccc(-c2cc(C(F)(F)F)nc(N3CCN(Cc4ccccc4)CC3)n2)cc1OC`: the AC50 was 5.01 µM [rising, partial curve].

Take `CCc1nc(NCCc2ccccn2)c2nnn(Cc3ccccc3F)c2n1`: the AC50 was 6.31 µM [rising, partial curve].

Turning to `COCCNC(=O)COC(=O)CSCc1nc2ccccc2s1`, the AC50 was 1 µM [falling, partial curve, poor fit].

Take `CCOC(=O)C1=C(C)N(c2ccccc2)C(=O)C1CC(=O)O` (stereo not given): the AC50 is 7.94 µM [falling, partial curve].

Turning to `O=C(CSc1ncnc2sc3c(c12)CCCC3)c1ccco1`, the AC50 is 6.31 µM [rising, single point].

`CC1CN(Cc2nc3c(c(=O)[nH]c(=O)n3C)n2CCCc2ccccc2)CC(C)O1` (stereo not given): the AC50 was 3.16 µM [rising, single point].

`COc1ccc(C(=O)N2CCc3cc(OC)c(OC)cc3C2)cc1OC`: the AC50 was 25.1 µM [rising, single point].

Consider `CCCc1cc(C(=O)N2CCN(C(c3ccccc3)c3ccccc3)CC2)no1`, for which the AC50 is 10 µM [falling, single point].

Consider `CC(C)c1cccc2nc3c(c([Si](C)(C)C)c12)Cn1c-3cccc1=O`, for which the AC50 is 12.6 µM [rising, partial curve].

As for `O=C(CCCSc1nc(-c2ccco2)cc(C(F)(F)F)n1)Nc1ccc2c(c1)OCO2`, the AC50 was 12.6 µM [rising, single point].

Consider `O=C(N1CCCCCC1)N1CCN(C(=O)N2CCCCC2)CC1`, for which the AC50 is 0.158 µM [rising, full curve, poor fit].

As to `CSc1nccn1CC(=O)Nc1ccc(F)cc1`, the AC50 is 0.0158 µM [falling, partial curve, poor fit].

Consider `O=C(Nc1ccc2oc(-c3ccccc3Cl)nc2c1)c1cncc(Br)c1`, for which the AC50 was 2.51 µM [rising, full curve].

Turning to `N#Cc1cc2c(nc1SCC(=O)Nc1sc3c(c1C#N)CCC3)CCCCC2`, the AC50 was 12.6 µM [rising, partial curve].

For the compound `Cc1nc2nc(C)c(CCC(=O)NCCCN3CCN(c4cccc(Cl)c4)CC3)c(C)n2n1`, the AC50 was 2 µM [falling, full curve].

On to `COC(=O)[C@@]1(Cc2ccccc2)[C@H]2c3cc(C(=O)N(C)C)n(Cc4ccsc4Br)c3C[C@H]2CN1C(=O)c1ccccc1`, for which the AC50 was 12.6 µM [rising, partial curve, poor fit].

For `CCCCn1c(-c2ccsc2)nc2c1c(=O)[nH]c(=O)n2CCC`, the AC50 is 10 µM [rising, partial curve].

As for `COC(=O)C1=CN(C(C)C)C=C(C(=O)OC)C1c1cccc(OC)c1`, the AC50 is 10 µM [rising, partial curve].

In the case of `CCOC(=O)C1Cn2c(nc3c(c2=O)C2(CCCC2)Cc2ccccc2-3)S1` (stereo not given), the AC50 is 1 µM [rising, partial curve].

On to `Cc1sc2nc(SCC(=O)N3CCCC3)[nH]c(=O)c2c1C`, for which the AC50 is 10 µM [rising, partial curve].

Regarding `Nc1nc2ccc(Cl)cc2c2nc(-c3ccco3)nn12`, the AC50 was 6.31 µM [rising, partial curve] and 158 nM [rising, full curve].

Regarding `Cc1sc2nc(CN(C(=O)c3cccs3)C3CCCC3)[nH]c(=O)c2c1C`, the AC50 is 10 µM [rising, partial curve].
